Assay results from PubChem BioAssay AID2685 (National Center for Advancing Translational Sciences (NCATS), 2010).
This is one part of the list. These are further read-outs of the screen, such as a control signal, another cell line or another target. No call is given for them. Compounds called inactive in the main read-out are mostly missing here. The note in brackets gives the kind of curve behind each potency; many fits are weak.

Experiment: qHTS Assay for Lipid Storage Modulators in Drosophila S3 Cells;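 as to cell number change: cells counted by Cell Tracker Red CMTPX staining in the red channel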
Conditions: BODIPY lipid droplet fluorescence, 18-24 h; for cell number change: measured here: cell count max response, cells fed with added oleic acid
In short: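 Laser-scanning cytometry quantifies lipid droplet accumulation (500–530 nm total intensity; droplet/cell object ratio) in oleic acid-fed (400 uM added) Drosophila S3 cells treated with a concentration series. 20 uM Triacsin C defined 100% inhibition.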

[1] = measured here: cell number channel AC50, cells fed with added oleic acid
[2] = measured here: lipid fluorescence (Fed channel) AC50, cells fed with added oleic acid

Row | SMILES | cell number change [%] | AC50 [1] | AC50 [2]
1 | O=C(O)CCCNc1cc(N2CCC3(CC2)OCCO3)c2noc3c2c1C(=O)c1ccccc1-3 | 17.1 | – | –
2 | Cc1c(OC(C)C(=O)O)ccc2c3c(c(=O)oc12)CCCC3 (stereo unspecified) | 18 | – | –
3 | CCOC(=O)N1CCN(C(=O)c2ccc(S(=O)(=O)Nc3cccc(C(F)(F)F)c3)cc2)CC1 | 107 | 20.6 µM [rising, partial curve] | –
4 | CCC(C)[C@H](NC(=O)N1CCCCC1)C(=O)OC (stereo partly specified) | -41.5 | 1.3 µM [falling, full curve] | 1.64 µM [falling, full curve]
5 | CON(C)S(=O)(=O)NC(=O)C1=C(N2CCCC2)COC1=O | 28.1 | 0.0146 µM [falling, full curve, poor fit] | 10.3 µM [rising, single point]
6 | COc1ccccc1CNc1nc(=S)[nH]c2cc(OC)c(OC)cc12 | 24.8 | – | –
7 | CS(=O)(=O)c1ccc(C(=O)Nc2ccc(-c3nc4ccccc4[nH]3)cc2)cc1 | 37.6 | 20.6 µM [rising, single point] | 16.4 µM [rising, single point]
8 | Cc1cc(NC(=O)Cn2c(=O)n(Cc3ccccc3)c(=O)c3ccccc32)no1 | – | – | 4.11 µM [falling, full curve, poor fit]
9 | Cc1ccc(-c2cc(C(=O)N3CCN(c4ccccc4O)CC3)c3ccccc3n2)o1 | -18.1 | – | 29.1 µM [rising, single point]
10 | CC(C)OC(=O)CSc1nc2cccnc2n1-c1ccc(F)cc1 | -10.4 | – | 2.91 µM [rising, single point]
11 | CCOc1ccccc1NC(=O)N1CCCC(c2nc3c(nnn3Cc3ccc(C)cc3)c(=O)[nH]2)C1 (stereo unspecified) | -12.6 | – | 20.6 µM [rising, single point]
12 | N=C1/C(=C\c2ccc(OC(=O)c3ccc(F)cc3)cc2)C(=O)N=C2SC(N3CCOCC3)=NN12 | -6.57 | – | 4.61 µM [rising, full curve]
13 | CCOC(=O)[C@H]1[C@H]2COc3ccc(Cl)cc3[C@@H]2N2C(=O)CN(C)C(=O)[C@@]12C | 6.86 | – | –
14 | N#Cc1nc(COc2ccc(Cl)cc2Cl)oc1N1CCOCC1 | -21.1 | – | 0.326 µM [rising, partial curve, poor fit]
15 | Cc1cccc(N(C(=O)c2snc(C(N)=O)c2N)C(C(=O)NCC2CCCO2)c2ccc3ncccc3c2)c1 (stereo unspecified) | 3.85 | – | –
16 | CCc1ccccc1NC(=O)CNC(=O)CCNC(=O)Nc1ccccc1 | 9.98 | – | 0.231 µM [rising, full curve, poor fit]
17 | CCCS(=O)(=O)N1CCN(CC2CC=CCC2)CC1 (stereo unspecified) | -52.3 | 0.0517 µM [falling, full curve] | –
18 | COc1ccc(Cl)cc1NC(=O)COc1ccc(S(=O)(=O)N2CCOCC2)cc1C | -9.52 | – | 29.1 µM [rising, single point]
19 | COc1ccc(C(=O)NCc2nnc(SCC(=O)Nc3ccccc3OC)n2C)cc1 | 103 | 20.6 µM [rising, single point] | –
20 | Cc1cc(O)c(C2(C(F)(F)F)NCCNC2=O)cc1C (stereo unspecified) | -192 | 20.6 µM [falling, partial curve] | –

Look-ups from the entries so far.
In AC50 [1], CON(C)S(=O)(=O)NC(=O)C1=C(N2CCCC2)COC1=O has 0.0146 µM [falling, full curve, poor fit]
In AC50 [1], CCC(C)[C@H](NC(=O)N1CCCCC1)C(=O)OC (stereo partly specified) has 1.3 µM [falling, full curve]

(further entries)

Row | SMILES | cell number change [%] | AC50 [1] | AC50 [2]
21 | Cc1c(-c2ccccc2)oc2c(C(=O)OCC(=O)Nc3ccc(F)cc3)cccc2c1=O | -2.09 | – | 1.64 µM [rising, full curve]
22 | COc1cc(C(=O)NCCNc2nc3c(C)c(C)ccc3cc2C#N)cc(OC)c1OC | 0.587 | – | 4.11 µM [rising, full curve]
23 | CC1CCN(c2cc(N3CCOCC3)c([N+](=O)[O-])cc2F)CC1 | -20.4 | – | 6.51 µM [falling, single point]
24 | Cn1c(=O)c2c(SCC(=O)N3CCOCC3)nc(-c3ccccc3F)nc2n(C)c1=O | 10.6 | – | 6.51 µM [falling, single point]
25 | CC(C)NC(=S)Nc1ccc2[nH]c(=O)[nH]c2c1 | 16.2 | – | 32.6 µM [rising, partial curve]
26 | COc1ccccc1C(=O)Nc1cc2c(cc1C(=O)O)OCCCO2 | 3.91 | – | –
27 | Cn1c2cc([N+](=O)[O-])sc2c2cnn(Cc3ccccc3F)c(=O)c21 | 17.4 | – | –
28 | C/C(=C\C(=O)Nc1cc(C)on1)c1ccccc1 | 11.4 | – | –
29 | N/C(=N\OC(=O)CC1CCCCC1)c1ccc(Br)cc1 | 17 | – | –
30 | Cc1cc(Cl)ccc1OCC(=O)N/N=C1\CCCc2ccccc21 | 40.8 | 23.1 µM [rising, single point] | 23.1 µM [falling, single point]
31 | O=C(O)CCNS(=O)(=O)c1ccccc1 | -24.2 | 4.11 µM [falling, full curve, poor fit] | 0.058 µM [falling, full curve]
32 | COc1ccc(OCC(=O)Nc2ccc3c(c2)nc(CCN2CCCCC2)n3C)cc1 | – | – | 3.26 µM [rising, partial curve, poor fit]
33 | Cc1cccc(C)c1NC(=O)C1CSC2(C)CCC(=O)N12 (stereo unspecified) | 32.4 | 5.17 µM [rising, full curve, poor fit] | 5.8 µM [rising, partial curve]
34 | Cc1ccc(S(=O)(=O)Nc2cccc(C(=O)NC3CCN(Cc4ccccc4)CC3)c2)cc1F | 150 | 13 µM [rising, partial curve] | –
35 | COc1c(C)cc(C(=O)C2CCCN(C(=O)CCCn3cncn3)C2)cc1C (stereo unspecified) | 8.39 | 0.00517 µM [rising, full curve, poor fit] | 13 µM [rising, partial curve]
36 | O=S(=O)(c1ccc(F)c(F)c1)N1CCN(c2ccccn2)CC1 | 27.2 | – | 0.731 µM [rising, single point]
37 | Cc1noc(-c2ccc(Cl)cc2)c1C(=O)O/N=C(\N)c1ccc(C(C)(C)C)cc1 | 7.15 | – | –
38 | COc1ccc(-n2c(C)nn(CCOc3ccccc3)c2=O)cc1 | -10.6 | – | 3.16 µM [falling, single point]
39 | O=C(NCCN1C(=O)CSC1=O)c1ccccc1 | -12 | – | 4.61 µM [falling, partial curve]
40 | CCCCCCN1C=C/C(=C\C=C(C#N)C#N)c2ccccc21 | -61.6 | 9.2 µM [falling, partial curve] | 6.51 µM [falling, full curve]
